These are yes or no findings as the source states them, for the method shown. Some binding calls cover weakened binding; strength is not graded here.
Columns and labels:
[1] = target: RAGE-Fc chimera protein (UniProt Q15109); assay: BLI; RAGE-Fc (15 μg/mL) immobilised on anti-IgG (AHC) biosensors; HMGB1 constructs 0–25 μM in solution; 200 s association/dissociation; both purified
[2] = target: DS-HMGB1 1–214 (human (by the printed UniProt entry P09429)) (UniProt P09429); assay: ELISA; solid-phase equilibrium (hybrid) ELISA: HMGB1 constructs coated at 40 nM in PBS (+0.5 mM TCEP for FR constructs); RAGE-Fc 0–640 nM in 10% BSA/PBS, 2 h, 4°C; anti-Human IgG HRP; both purified
[3] = target: FR-HMGB1 1–214 (human (by the printed UniProt entry P09429)) (UniProt P09429); assay: as above

Protein sequences, listed by entry. Tags and fused reporters are not part of them. Lines headed by an entry give the natural chain unless they say otherwise; changes in a name come on top. Residues count along the entry.
UniProt Q15109, residues 23-342: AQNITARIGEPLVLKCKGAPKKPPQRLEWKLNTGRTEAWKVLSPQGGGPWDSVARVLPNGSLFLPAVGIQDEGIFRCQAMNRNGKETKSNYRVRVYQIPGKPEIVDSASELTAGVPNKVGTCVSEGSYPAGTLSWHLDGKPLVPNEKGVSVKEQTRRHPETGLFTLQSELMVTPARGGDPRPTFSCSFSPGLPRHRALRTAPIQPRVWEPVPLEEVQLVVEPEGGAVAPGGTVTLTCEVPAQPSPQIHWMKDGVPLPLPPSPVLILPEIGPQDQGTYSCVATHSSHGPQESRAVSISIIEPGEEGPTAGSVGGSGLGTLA
UniProt P09429: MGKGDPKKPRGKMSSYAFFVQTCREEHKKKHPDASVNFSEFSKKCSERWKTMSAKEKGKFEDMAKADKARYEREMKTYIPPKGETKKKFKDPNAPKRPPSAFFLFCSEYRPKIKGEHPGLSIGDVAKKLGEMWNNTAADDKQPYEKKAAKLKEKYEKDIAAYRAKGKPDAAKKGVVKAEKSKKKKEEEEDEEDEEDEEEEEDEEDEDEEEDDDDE

Row | Substance | binding [1] | binding [2] | binding [3]
1 | DS-HMGB1 1–214 (from UniProt P09429 1-215) | binds | – | –
2 | FR-HMGB1 1–214 (from UniProt P09429 1-215) | binds | – | –
3 | RAGE-Fc chimera protein (from UniProt Q15109 23-342) (Fc fusion) | – | binds | binds

— PMC13486833
